In the supplement of paper PMC12819154, “High-throughput peptide-centric local stability assay extends protein–ligand identification to membrane proteins, tissues and bacteria” (Nature Structural & Molecular Biology, 2025) one finds log2 fold change data, which are given here for 67 targets.

Protein sequences, listed by entry. Tags and fused reporters are not part of them. Lines headed by an entry give the natural chain unless they say otherwise; changes in a name come on top.
UniProt Q9JIS3: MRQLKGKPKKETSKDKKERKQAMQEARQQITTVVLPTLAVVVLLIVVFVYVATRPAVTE
UniProt Q9JL60: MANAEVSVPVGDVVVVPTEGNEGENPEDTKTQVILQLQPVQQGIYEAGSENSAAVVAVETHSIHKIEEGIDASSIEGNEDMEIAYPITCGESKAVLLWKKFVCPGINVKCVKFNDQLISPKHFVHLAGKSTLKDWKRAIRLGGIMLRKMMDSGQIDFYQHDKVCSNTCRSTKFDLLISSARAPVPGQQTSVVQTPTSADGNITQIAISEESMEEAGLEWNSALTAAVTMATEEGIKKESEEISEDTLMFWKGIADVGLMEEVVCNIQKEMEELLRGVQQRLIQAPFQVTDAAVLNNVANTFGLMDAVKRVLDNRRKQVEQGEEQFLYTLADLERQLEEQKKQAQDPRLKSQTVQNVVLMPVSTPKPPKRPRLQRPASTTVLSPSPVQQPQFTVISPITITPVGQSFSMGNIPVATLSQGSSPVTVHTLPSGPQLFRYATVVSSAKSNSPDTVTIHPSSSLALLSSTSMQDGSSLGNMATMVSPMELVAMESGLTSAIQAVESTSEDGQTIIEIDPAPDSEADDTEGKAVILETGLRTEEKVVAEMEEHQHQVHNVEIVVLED
UniProt Q9JJU8: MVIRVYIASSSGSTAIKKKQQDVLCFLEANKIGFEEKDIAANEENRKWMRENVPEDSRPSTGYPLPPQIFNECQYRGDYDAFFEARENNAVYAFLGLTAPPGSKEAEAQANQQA
UniProt Q9JKC8: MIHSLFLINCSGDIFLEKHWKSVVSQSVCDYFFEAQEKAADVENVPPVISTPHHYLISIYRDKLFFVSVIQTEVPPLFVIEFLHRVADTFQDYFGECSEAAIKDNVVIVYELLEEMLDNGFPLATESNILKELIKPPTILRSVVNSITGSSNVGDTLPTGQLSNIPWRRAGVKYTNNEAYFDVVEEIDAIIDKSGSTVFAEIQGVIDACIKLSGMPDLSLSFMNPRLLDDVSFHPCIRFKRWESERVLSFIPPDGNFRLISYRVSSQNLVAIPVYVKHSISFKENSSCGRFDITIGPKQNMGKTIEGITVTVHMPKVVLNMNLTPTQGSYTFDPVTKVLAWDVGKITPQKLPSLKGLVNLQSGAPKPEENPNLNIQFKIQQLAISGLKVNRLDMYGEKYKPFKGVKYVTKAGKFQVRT
UniProt Q9JI57: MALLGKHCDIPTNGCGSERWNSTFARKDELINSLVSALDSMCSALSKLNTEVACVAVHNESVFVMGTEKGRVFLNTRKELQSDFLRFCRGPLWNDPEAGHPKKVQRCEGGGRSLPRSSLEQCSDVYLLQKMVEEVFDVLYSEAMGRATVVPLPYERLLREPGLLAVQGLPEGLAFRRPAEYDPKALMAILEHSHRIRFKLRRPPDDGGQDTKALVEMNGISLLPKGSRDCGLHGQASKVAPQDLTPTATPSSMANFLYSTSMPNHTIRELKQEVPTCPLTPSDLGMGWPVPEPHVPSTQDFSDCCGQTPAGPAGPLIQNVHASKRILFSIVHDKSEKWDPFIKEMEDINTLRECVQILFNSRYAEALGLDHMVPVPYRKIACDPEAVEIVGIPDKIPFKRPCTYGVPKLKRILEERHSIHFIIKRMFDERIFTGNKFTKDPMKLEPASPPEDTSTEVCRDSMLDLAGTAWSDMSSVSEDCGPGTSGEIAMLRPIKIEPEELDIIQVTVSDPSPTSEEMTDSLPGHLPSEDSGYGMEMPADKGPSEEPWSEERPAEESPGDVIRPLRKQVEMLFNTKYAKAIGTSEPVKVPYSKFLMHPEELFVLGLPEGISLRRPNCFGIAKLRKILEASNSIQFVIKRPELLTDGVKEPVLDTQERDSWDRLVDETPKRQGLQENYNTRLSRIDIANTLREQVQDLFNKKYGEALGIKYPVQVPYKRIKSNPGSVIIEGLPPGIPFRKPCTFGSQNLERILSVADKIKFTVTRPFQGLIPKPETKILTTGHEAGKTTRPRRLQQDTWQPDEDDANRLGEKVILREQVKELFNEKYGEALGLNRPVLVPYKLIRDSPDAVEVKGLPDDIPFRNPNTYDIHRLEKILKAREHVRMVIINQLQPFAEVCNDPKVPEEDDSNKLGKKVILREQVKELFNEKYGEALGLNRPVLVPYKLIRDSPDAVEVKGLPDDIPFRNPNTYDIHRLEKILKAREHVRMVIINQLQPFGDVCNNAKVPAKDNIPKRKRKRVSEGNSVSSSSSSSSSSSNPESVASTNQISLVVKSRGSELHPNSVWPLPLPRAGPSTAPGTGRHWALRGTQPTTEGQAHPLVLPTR
UniProt Q9JJN2: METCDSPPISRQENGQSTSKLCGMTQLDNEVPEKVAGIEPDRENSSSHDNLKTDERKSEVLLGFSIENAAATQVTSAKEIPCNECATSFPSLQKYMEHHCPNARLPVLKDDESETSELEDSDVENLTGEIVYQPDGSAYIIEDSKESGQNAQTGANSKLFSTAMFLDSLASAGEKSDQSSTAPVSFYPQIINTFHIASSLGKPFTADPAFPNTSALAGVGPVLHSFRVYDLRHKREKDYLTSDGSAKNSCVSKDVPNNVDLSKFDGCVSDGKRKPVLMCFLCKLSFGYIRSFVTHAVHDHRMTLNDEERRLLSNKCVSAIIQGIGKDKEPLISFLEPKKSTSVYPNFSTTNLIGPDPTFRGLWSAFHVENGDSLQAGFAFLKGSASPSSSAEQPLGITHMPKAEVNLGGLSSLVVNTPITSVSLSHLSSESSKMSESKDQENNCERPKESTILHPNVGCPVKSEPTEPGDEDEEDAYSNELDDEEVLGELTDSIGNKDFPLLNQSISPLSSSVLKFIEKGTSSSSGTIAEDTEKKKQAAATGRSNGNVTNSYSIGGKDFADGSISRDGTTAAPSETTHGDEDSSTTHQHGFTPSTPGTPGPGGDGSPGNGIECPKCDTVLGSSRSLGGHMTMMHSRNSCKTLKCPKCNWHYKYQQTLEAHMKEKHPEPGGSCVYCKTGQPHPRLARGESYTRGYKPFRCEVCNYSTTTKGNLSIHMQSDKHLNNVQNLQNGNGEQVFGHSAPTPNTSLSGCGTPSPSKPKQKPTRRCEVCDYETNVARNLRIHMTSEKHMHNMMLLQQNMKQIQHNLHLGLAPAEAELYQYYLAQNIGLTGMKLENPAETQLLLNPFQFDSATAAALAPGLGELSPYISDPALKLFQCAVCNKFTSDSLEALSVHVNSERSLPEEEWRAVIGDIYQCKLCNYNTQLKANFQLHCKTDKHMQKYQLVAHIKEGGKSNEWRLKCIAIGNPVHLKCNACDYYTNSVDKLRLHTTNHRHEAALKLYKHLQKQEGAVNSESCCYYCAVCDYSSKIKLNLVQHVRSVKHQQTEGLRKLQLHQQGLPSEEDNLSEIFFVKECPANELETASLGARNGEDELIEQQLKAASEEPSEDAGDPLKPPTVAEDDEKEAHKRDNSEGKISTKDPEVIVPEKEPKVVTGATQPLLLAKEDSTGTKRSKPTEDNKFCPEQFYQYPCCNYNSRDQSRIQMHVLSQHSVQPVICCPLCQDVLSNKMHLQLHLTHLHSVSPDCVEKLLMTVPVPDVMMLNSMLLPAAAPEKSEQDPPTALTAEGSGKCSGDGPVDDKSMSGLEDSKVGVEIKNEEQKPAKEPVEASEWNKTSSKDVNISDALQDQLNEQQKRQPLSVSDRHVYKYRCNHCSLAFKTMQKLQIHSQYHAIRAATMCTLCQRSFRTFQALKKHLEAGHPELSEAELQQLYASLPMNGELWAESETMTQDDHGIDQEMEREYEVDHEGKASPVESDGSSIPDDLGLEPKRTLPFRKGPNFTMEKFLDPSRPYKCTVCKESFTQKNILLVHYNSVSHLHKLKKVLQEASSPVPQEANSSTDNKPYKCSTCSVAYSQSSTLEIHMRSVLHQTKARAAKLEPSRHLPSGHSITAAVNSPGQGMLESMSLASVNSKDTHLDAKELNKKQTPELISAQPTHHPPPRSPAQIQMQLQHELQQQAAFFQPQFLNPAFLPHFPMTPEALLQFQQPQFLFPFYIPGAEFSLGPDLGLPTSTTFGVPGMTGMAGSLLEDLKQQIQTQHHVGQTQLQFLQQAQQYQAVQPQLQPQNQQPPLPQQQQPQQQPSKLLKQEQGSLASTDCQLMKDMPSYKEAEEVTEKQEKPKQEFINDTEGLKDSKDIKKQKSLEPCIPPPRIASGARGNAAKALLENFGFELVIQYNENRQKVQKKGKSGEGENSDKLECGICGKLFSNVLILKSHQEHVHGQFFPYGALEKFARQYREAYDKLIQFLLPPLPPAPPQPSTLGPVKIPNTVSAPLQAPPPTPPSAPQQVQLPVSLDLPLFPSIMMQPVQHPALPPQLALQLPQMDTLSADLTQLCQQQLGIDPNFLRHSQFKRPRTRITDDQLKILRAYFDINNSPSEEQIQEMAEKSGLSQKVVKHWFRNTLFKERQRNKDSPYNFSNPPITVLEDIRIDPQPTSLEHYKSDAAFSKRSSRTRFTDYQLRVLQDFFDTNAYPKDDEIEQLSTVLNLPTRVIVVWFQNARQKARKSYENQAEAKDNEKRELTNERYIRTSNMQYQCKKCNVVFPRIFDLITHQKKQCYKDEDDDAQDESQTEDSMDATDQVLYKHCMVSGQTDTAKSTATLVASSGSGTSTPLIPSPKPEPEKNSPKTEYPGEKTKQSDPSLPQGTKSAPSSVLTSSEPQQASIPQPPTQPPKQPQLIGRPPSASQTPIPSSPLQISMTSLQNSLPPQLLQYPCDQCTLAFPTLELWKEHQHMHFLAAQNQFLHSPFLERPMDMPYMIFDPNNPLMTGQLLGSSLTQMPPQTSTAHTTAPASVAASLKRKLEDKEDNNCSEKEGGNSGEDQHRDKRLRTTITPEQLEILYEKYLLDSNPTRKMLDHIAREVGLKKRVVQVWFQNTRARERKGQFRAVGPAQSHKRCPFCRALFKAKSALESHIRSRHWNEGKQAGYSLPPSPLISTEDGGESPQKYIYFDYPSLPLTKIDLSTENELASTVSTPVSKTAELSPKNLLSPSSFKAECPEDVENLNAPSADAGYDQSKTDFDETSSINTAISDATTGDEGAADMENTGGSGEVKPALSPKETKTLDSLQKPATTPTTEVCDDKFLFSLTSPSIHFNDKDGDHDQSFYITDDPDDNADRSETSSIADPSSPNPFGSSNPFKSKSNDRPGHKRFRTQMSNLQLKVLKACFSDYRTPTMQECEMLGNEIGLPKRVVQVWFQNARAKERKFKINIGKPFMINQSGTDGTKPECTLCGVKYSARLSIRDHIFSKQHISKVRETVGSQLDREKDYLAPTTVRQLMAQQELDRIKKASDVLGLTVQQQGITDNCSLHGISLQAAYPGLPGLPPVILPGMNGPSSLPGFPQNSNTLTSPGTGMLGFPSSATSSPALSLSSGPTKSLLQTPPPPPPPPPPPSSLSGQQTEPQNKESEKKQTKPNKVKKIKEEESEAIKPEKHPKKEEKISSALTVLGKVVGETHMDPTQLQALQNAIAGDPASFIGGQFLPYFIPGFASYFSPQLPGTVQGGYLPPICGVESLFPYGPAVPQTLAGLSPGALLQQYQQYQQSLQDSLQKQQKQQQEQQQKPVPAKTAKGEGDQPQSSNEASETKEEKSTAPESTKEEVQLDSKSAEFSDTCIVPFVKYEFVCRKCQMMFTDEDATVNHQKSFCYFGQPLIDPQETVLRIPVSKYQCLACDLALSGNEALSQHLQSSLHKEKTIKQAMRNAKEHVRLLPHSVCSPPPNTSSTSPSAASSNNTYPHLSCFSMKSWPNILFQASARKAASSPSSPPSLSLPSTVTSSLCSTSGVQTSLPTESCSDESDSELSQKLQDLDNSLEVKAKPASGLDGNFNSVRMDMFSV
UniProt Q9JK53: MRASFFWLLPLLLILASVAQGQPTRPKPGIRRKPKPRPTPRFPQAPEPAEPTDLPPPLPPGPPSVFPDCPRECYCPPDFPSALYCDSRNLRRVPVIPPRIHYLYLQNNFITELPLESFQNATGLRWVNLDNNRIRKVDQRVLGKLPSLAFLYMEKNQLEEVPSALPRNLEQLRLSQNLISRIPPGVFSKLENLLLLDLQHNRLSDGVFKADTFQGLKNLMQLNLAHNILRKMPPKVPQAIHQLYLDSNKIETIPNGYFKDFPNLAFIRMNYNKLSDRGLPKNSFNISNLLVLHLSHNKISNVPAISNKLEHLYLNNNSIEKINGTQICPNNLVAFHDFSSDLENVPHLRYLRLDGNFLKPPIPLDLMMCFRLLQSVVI
UniProt Q9JI59: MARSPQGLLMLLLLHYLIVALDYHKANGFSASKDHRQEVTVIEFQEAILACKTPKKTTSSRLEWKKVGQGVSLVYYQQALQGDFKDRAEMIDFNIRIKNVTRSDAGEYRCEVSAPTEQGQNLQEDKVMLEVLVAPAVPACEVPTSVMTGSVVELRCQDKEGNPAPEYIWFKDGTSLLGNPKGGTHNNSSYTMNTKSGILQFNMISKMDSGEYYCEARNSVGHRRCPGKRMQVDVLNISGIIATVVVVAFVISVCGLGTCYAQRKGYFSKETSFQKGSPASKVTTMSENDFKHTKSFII
UniProt Q9JLJ1, whole entry: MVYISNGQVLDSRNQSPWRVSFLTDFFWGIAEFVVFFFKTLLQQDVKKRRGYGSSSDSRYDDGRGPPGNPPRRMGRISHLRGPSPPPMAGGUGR

Compound in this assay: CN[C@@H]1C[C@H]2O[C@@](C)([C@@H]1OC)n1c3ccccc3c3c4c(c5c6ccccc6n2c5c31)C(=O)NC4 [staurosporine]
The assay is described as follows: log2 fold change of tryptic peptide abundance, ligand vs vehicle (limited proteolysis) (log2 ratio); higher = more trypsin-susceptible (destabilized). The conditions noted are these: ligand concentration: 20 uM; sample: mouse liver crude lysate; replicate design: treated separately.

This is one part of the list. Most values lie at the level of the controls, where differences are scatter.

With “UniProt Q9ESC7 (peptide sequence: AHLANHDELISK, peptide start residue: 28)”, the log2 fold change was -0.202.
In the case of “UniProt Q9JM99 (peptide sequence: AVGPFQTHTFR, peptide start residue: 956)”, the log2 fold change is 0.471.
For “UniProt Q9JJT9 (peptide sequence: DIFYVENQKEYENKK, peptide start residue: 297)” the value was 0.597; for “UniProt Q9JHS4 (peptide sequence: VLSVAVYNHYKR, peptide start residue: 190)”, -0.148.
For “UniProt Q9QX47 (peptide sequence: EGNKEPILVDFK, peptide start residue: 2347)” the value was -0.299; for “UniProt Q9ET47 (peptide sequence: QKLEEIQR, peptide start residue: 830)”, 0.0544; for “UniProt Q9JI99 (peptide sequence: LSSIPCHDIR, peptide start residue: 383)”, 0.36.
In the case of “UniProt Q9JIS3 (peptide sequence: KQAMQEAR, peptide start residue: 20)”, the log2 fold change came out at 0.154.
As to “UniProt Q9ESZ8 (peptide sequence: RPELLTHSTTEVTQPR, peptide start residue: 540)”, the log2 fold change was -0.773.
Take “UniProt Q9JIK5 (peptide sequence: LGSDGAEESMETLPKPSEKK, peptide start residue: 11)”: the log2 fold change was -0.338.
With “UniProt Q9JL60 (peptide sequence: FVCPGINVK, peptide start residue: 108)” the figure was -0.132.
With “UniProt Q9JHW9 (peptide sequence: YFAGWADK, peptide start residue: 150)” the figure was 0.218.
For “UniProt Q9JJU8 (peptide sequence: VYIASSSGSTAIK, peptide start residue: 5)” the value was 0.151.
With “UniProt Q9JLZ3 (peptide sequence: EFLPQGPVAMR, peptide start residue: 252)”, the log2 fold change is -0.185.
For “UniProt Q9JI19 (peptide sequence: TFHMLER, peptide start residue: 62)” the value was -0.105.
For “UniProt Q9QUT0 (peptide sequence: FFQHANHNHVEHEV, peptide start residue: 425)” the value was 0.182; for “UniProt Q9JKC8 (peptide sequence: ITPQKLPSLK, peptide start residue: 346)”, -0.387.
For “UniProt Q9JJ06 (peptide sequence: EINQVNRK, peptide start residue: 346)” the value was 0.193; for “UniProt Q9QWR8 (peptide sequence: FPHGIAFLADYAHSLGLK, peptide start residue: 98)”, 0.742; for “UniProt Q9JJN5 (peptide sequence: AVIQWIR, peptide start residue: 199)”, 0.12.
For the target “UniProt Q9JIL4 (peptide sequence: KGVYLTDIMPQGVAMK, peptide start residue: 156)”, the log2 fold change is -0.292.
With “UniProt Q9JJG9 (peptide sequence: HAGHELLLVPMGGK, peptide start residue: 582)” the figure was 0.206; with “UniProt Q9JI57 (peptide sequence: YGEALGLNRPVLVPYK, peptide start residue: 826)”, -0.0241; with “UniProt Q9JI13 (peptide sequence: YYKEMEDR, peptide start residue: 368)”, 0.31.
With “UniProt Q9JKL4 (peptide sequence: GFTICGNR, peptide start residue: 68)” the figure was -0.366; with “UniProt Q9JJI8 (peptide sequence: CSRYLYTLVITDKEK, peptide start residue: 38)”, 0.374.
With “UniProt Q9JMG3 (peptide sequence: FLNDSEQVAR, peptide start residue: 108)” the figure was 0.132; with “UniProt Q9JLQ2 (peptide sequence: LQTLQSENSSLRR, peptide start residue: 414)”, -0.187.
“UniProt Q9QXB9 (peptide sequence: KPNSVVISCGMK, peptide start residue: 262)”: the log2 fold change came to 0.276.
With “UniProt Q9ESN6 (peptide sequence: RKENPIEDDLIFR, peptide start residue: 463)” the figure was 0.119; with “UniProt Q9JJX6 (peptide sequence: FDIIVFGK, peptide start residue: 319)”, 0.429; with “UniProt Q9JLF6 (peptide sequence: SGENIPMAYR, peptide start residue: 803)”, -0.147.
For “UniProt Q9JHW4 (peptide sequence: ETNIQLFVGLK, peptide start residue: 484)” the value was 0.317.
For “UniProt Q9JIS5 (peptide sequence: MADGAPLAGVR, peptide start residue: 113)” the value was -0.138; for “UniProt Q9QWV9 (peptide sequence: FYMIQSFTQFHR, peptide start residue: 69)”, -0.961; for “UniProt Q9JJN2 (peptide sequence: KKQAAATGR, peptide start residue: 535)”, -0.639.
Regarding “UniProt Q9JKK1 (peptide sequence: KFNLDATELSIR, peptide start residue: 77)”, the log2 fold change was -0.0865.
With “UniProt Q9JK53 (peptide sequence: ISNVPAISNK, peptide start residue: 299)” the figure was 0.231; with “UniProt Q9ET01 (peptide sequence: TFAYTNHTVLPEALER, peptide start residue: 372)”, -0.646; with “UniProt Q9ET26 (peptide sequence: DGAAQSAKPASETDPLSR, peptide start residue: 10)”, -0.123.
For “UniProt Q9JM98 (peptide sequence: MITEFGHPATINNPK, peptide start residue: 257)” the value was -0.3; for “UniProt Q9JIB0 (peptide sequence: YHFEDVGR, peptide start residue: 66)”, 0.307; for “UniProt Q9JHW2 (peptide sequence: AVDNQVYVATASPARDDK, peptide start residue: 196)”, -0.295.
With “UniProt Q9JM14 (peptide sequence: LLSWSDNWR, peptide start residue: 182)” the figure was -0.111; with “UniProt Q9JKR6 (peptide sequence: EAGMQPQLQIR, peptide start residue: 252)”, 0.123.
As to “UniProt Q9JII5 (peptide sequence: GQNHNVQGFHPYR, peptide start residue: 393)”, the log2 fold change was -0.453.
With “UniProt Q9QWG7 (peptide sequence: EEHPLLYLYYEELKQNPKK, peptide start residue: 185)” the figure was -0.196.
As to “UniProt Q9JI59 (peptide sequence: VTTMSENDFK, peptide start residue: 282)”, the log2 fold change is -0.131.
With “UniProt Q9ESD7 (peptide sequence: KPPSHPPPHYPGAK, peptide start residue: 190)” the figure was 0.142; with “UniProt Q9JIY7 (peptide sequence: LSVSSQHR, peptide start residue: 142)”, -0.114; with “UniProt Q9JJ28 (peptide sequence: ACQVYIQHTR, peptide start residue: 1225)”, -0.713.
On to “UniProt Q9JHR9 (peptide sequence: DLQPHSVIQR, peptide start residue: 62)”, for which the log2 fold change is -0.000332.
With “UniProt Q9JME5 (peptide sequence: IAPDVLRK, peptide start residue: 514)” the figure was 0.199; with “UniProt Q9ESX5 (peptide sequence: NFDKLNVR, peptide start residue: 58)”, -0.405; with “UniProt Q9JHJ0 (peptide sequence: DRDDYVPYTGEK, peptide start residue: 82)”, -0.257.
For “UniProt Q9JJA2 (peptide sequence: HGNLGHVNISAIQEPLAFILPKR, peptide start residue: 543)” the value was -1.05; for “UniProt Q9JI60 (peptide sequence: LFSVSVPGGGTGK, peptide start residue: 24)”, 0.172.
For “UniProt Q9JKB3 (peptide sequence: MQAGEIGEMK, peptide start residue: 251)” the value was 0.162; for “UniProt Q9JKK8 (peptide sequence: TLQVLLPDLAAK, peptide start residue: 994)”, -0.165.
As to “UniProt Q9EST3 (peptide sequence: SSSLGSTPHEELER, peptide start residue: 350)”, the log2 fold change came out at 0.539.
With “UniProt Q9JLJ1 (peptide sequence: YDDGRGPPGNPPRR, peptide start residue: 60)” the figure was 0.371; with “UniProt Q9QWL7 (peptide sequence: ATMQNLNDR, peptide start residue: 74)”, -0.0545.
In the case of “UniProt Q9JMA1 (peptide sequence: LQEEITK, peptide start residue: 294)”, the log2 fold change was -0.345.
With “UniProt Q9JHS3 (peptide sequence: FILMDCMEGR, peptide start residue: 71)” the figure was 0.214; with “UniProt Q9JIW9 (peptide sequence: VKSEEDKIPLLVVGNK, peptide start residue: 114)”, -0.0576; with “UniProt Q9JJZ6 (peptide sequence: HANFHPGMLQR, peptide start residue: 250)”, 0.142.
For the target “UniProt Q9ESJ4 (peptide sequence: RILTEEEASPQCQMDR, peptide start residue: 681)”, the log2 fold change was determined as 0.458.
